The values that follow come from the supplement of paper PMC12542422.

Counter-ions that a name gives are not always drawn. ± gives the standard deviation of the averaged measurements. Some of the results follow. Values are raw readings; no control value is given beside them.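 Across three biological replicates, HeLa cells were imaged for ribosome assembly using ENP1 staining (export block present or absent) or inducible tagged ribosomal protein reporters. Machine learning classified each cell's signal localization relative to DMSO controls. Hits exceeded the DMSO false-positive mean by five standard deviations and were then visually confirmed.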

In one assay the test system is HeLa K (ENP1 immunofluorescence, +LMB). Description: fraction of cells with nucleolar or nucleolar/nucleoplasmic ENP1 signal (MainHitrate); higher = more cells with nucleolar/nuclear readout signal (for ENP1 -LMB: less RNAPI inhibition; for +LMB ENP1 and RP reporters: stronger nuclear/nucleolar retention, i.e. ribosome biogenesis defect). To be noted: concentration: 1 µM; treatment time: 6 h; ENP1 +LMB; leptomycin B: 20 nM, last 1.5 h.
In the case of `CN1C(C(=O)Nc2ccccn2)=C(O)c2sc(Cl)cc2S1(=O)=O` [Lornoxicam (Xefo)], the fraction came out at 0.166 ± 0.25. `N[C@H](Cc1ccccc1)C(=O)O` [D-Phenylalanine] gave a fraction of 0.088 ± 0.13. The same measure, in the same setting: the value for `CC(C(=O)O)c1ccc(-c2ccccc2)c(F)c1` (configuration not stated) [Flurbiprofen (Ansaid)] was 0.0823 ± 0.051; that for `Nc1nc2c(ncn2COCCO)c(=O)[nH]1` [Acyclovir (Aciclovir)] was 0.0817 ± 0.1. Still for that read-out and setting: the value for `Cc1ccccc1C(=O)Nc1ccc(C(=O)N2CCCC(O)c3cc(Cl)ccc32)c(C)c1` (configuration not stated) was 0.0399 ± 0.037; that for `N[C@@H]1CN(c2c(F)cc3c(=O)c(C(=O)O)cn([C@@H]4C[C@@H]4F)c3c2Cl)CC12CC2` [Sitafloxacin hydrate] was 0.156 ± 0.23; that for `Cc1cc2c(cc1S(N)(=O)=O)S(=O)(=O)CCC2` [Meticrane] was 0.233 ± 0.31. Still for that read-out and setting: the value for `CC(=O)O[C@H]1C[C@@H]2CC[C@@H]3[C@H](CC[C@@]4(C)[C@H]3C[C@H]([N+]3(C)CCCCC3)[C@@H]4OC(C)=O)[C@@]2(C)C[C@@H]1N1CCCCC1` [Vecuronium Bromide] was 0.117 ± 0.086; that for `CC(C)[N+]1(C)[C@@H]2CC[C@H]1C[C@@H](OC(=O)C(CO)c1ccccc1)C2` (some centres not stated) [Ipratropium bromide] was 0.0718 ± 0.055; that for `CN(C)CCC(c1ccc(Br)cc1)c1ccccn1` (configuration not stated) [Brompheniramine] was 0.0622 ± 0.06. `CC(C)NCC(O)c1ccc(O)c(O)c1` (configuration not stated) [Isoprenaline hydrochloride] came in with a fraction of 0.13 ± 0.2.

`OC[C@@H](O)[C@@H](O)[C@H](O)[C@H](O)CO` [D-Mannitol (Osmitrol)] showed a fraction of 0.138 ± 0.2.

`CN(C)CCN(Cc1cccs1)c1ccccn1` [Methapyrilene HCl]: the fraction came to 0.106 ± 0.14. Still for that read-out and setting: as for `COc1ccc([C@H]2CNC(=O)C2)cc1OC1CCCC1` [S-(+)-Rolipram], the figure is 0.0981 ± 0.15; as for `C#C[C@]1(O)CC[C@H]2[C@@H]3CCc4cc(O)ccc4[C@H]3CC[C@@]21C` [Ethinyl Estradiol], 0.154 ± 0.2; as for `CO[C@H]1C[C@@H]2CC[C@@H](C)[C@@](O)(O2)C(=O)C(=O)N2CCCC[C@H]2C(=O)O[C@H]([C@H](C)C[C@@H]2CC[C@@H](O)[C@H](OC)C2)CC(=O)[C@H](C)/C=C(\C)[C@@H](O)[C@@H](OC)C(=O)[C@H](C)C[C@H](C)/C=C/C=C/C=C/1C` [Rapamycin (Sirolimus)], 0.165 ± 0.11. Same read-out and setting: the value for `COC(=O)[C@H](c1ccccc1Cl)N1CCc2sccc2C1` [Clopidogrel (Plavix)] was 0.0977 ± 0.12. Still for that read-out and setting: as for `C[C@H]1C[C@H]2[C@@H]3CCC4=CC(=O)C=C[C@]4(C)[C@@]3(F)[C@@H](O)C[C@]2(C)[C@@]1(O)C(=O)CO` [Betamethasone (Celestone)], the figure is 0.0857 ± 0.067; as for `CN(C)c1ccc(C(=C2C=CC(=[N+](C)C)C=C2)c2ccc(N(C)C)cc2)cc1` [Crystal violet], 0.206 ± 0.32; as for `CN1CCC(=C2c3ccccc3CC(=O)c3sccc32)CC1` [Ketotifen fumarate (Zaditor)], 0.114 ± 0.17.

`Nc1nc(N)c2nc(-c3ccccc3)c(N)nc2n1` [triamterene] displayed a fraction of 0.101 ± 0.13. Compound `CCOC(=O)C1=C(C)NC(C)=C(C(=O)OCC)C1c1ccccc1/C=C/C(=O)OC(C)(C)C` [Lacidipine (Lacipil, Motens)] gave a fraction of 0.0956 ± 0.12.

The compound `C[C@](N)(Cc1ccc(O)c(O)c1)C(=O)O` [Methyldopa (Aldomet)] came in with a fraction of 0.123 ± 0.14. On the same count and under the same terms, the value for `CN(C)CCC(c1ccccc1)c1ccccn1` (configuration not stated) [Pheniramine Maleate] was 0.093 ± 0.13. In turn, `CC#CCn1c(N2CCC[C@@H](N)C2)nc2c1c(=O)n(Cc1nc(C)c3ccccc3n1)c(=O)n2C` [Linagliptin (BI-1356)] gave a fraction of 0.103 ± 0.11.

`NS(=O)(=O)c1cc2c(cc1Cl)N=CNS2(=O)=O` [Chlorothiazide] came in with a fraction of 0.101 ± 0.11. The compound `NCC(=O)CCC(=O)O` [5-Aminolevulinic acid hydrochloride] showed a fraction of 0.153 ± 0.23.

Compound `CN(C)CCCN1c2ccccc2CCc2ccc(Cl)cc21` [Clomipramine hydrochloride (Anafranil)] showed a fraction of 0.149 ± 0.22.

The subject of another assay is HeLa K (ENP1 immunofluorescence, no LMB). Described as above. To be noted: concentration: 1 µM; treatment time: 6 h; ENP1 -LMB; leptomycin B: none.
`COc1ccc2[nH]c([S@@+]([O-])Cc3ncc(C)c(OC)c3C)nc2c1` [Esomeprazole sodium (Nexium)] returned a fraction of 0.99 ± 0.018. `Nc1ncn([C@H]2C[C@H](O)[C@@H](CO)O2)c(=O)n1` [Decitabine] displayed a fraction of 0.992 ± 0.013. Same read-out and setting: the value for `CCCCN(CCCC)CCCOC(=O)c1ccc(N)cc1` [Butacaine] was 0.994 ± 0.011; that for `CN/C(=N\CCSCc1nc[nH]c1C)NC#N` [Cimetidine (Tagamet)] was 0.992 ± 0.014; that for `CCCCCCCCCCC[C@@H](C[C@@H]1OC(=O)[C@H]1CCCCCC)OC(=O)[C@H](CC(C)C)NC=O` [Orlistat (Alli, Xenical)] was 0.9981 ± 0.0033.

`NCC[C@H](O)C(=O)N[C@@H]1C[C@H](N)[C@@H](O[C@H]2O[C@H](CN)[C@@H](O)[C@H](O)[C@H]2O)[C@H](O)[C@H]1O[C@H]1O[C@H](CO)[C@@H](O)[C@H](N)[C@H]1O` [Amikacin hydrate] showed a fraction of 0.985 ± 0.026. Same read-out and setting: the value for `CC1(C)O[C@@H]2C[C@H]3[C@@H]4CCC5=CC(=O)C=C[C@]5(C)[C@@]4(F)[C@@H](O)C[C@]3(C)[C@]2(C(=O)CO)O1` [Triamcinolone Acetonide] was 0.9987 ± 0.0023. Still for that read-out and setting: the value for `Cc1ccc(C(=O)C(C)CN2CCCCC2)cc1` (configuration not stated) [Tolperisone HCl] was 0.991 ± 0.015. `CCCOc1ccc2[nH]c(NC(=O)OC)nc2c1` [Oxibendazole] yielded a fraction of 0.991 ± 0.016.

Compound `CCN(CC)C(=S)SSC(=S)N(CC)CC` [Disulfiram (Antabuse)] registered a fraction of 0.9984 ± 0.0028.

`CN(C)c1cc(NC(=O)CNC(C)(C)C)c(O)c2c1C[C@H]1C[C@H]3[C@H](N(C)C)C(O)=C(C(N)=O)C(=O)[C@@]3(O)C(O)=C1C2=O` [Tigecycline] gave a fraction of 0.9985 ± 0.0026.

`CN1C(C(=O)Nc2ccccn2)=C(O)c2sc(Cl)cc2S1(=O)=O` [Lornoxicam (Xefo)] yielded a fraction of 0.99 ± 0.017. On the same count and under the same terms, the value for `N[C@H](Cc1ccccc1)C(=O)O` [D-Phenylalanine] was 0.9982 ± 0.0032; that for `CC(C(=O)O)c1ccc(-c2ccccc2)c(F)c1` (configuration not stated) [Flurbiprofen (Ansaid)] was 0.998 ± 0.0034. Regarding `Nc1nc2c(ncn2COCCO)c(=O)[nH]1` [Acyclovir (Aciclovir)], the fraction is 0.9965 ± 0.006. Same read-out and setting: the value for `Cc1ccccc1C(=O)Nc1ccc(C(=O)N2CCCC(O)c3cc(Cl)ccc32)c(C)c1` (configuration not stated) was 0.989 ± 0.018. On the same count and under the same terms, the value for `N[C@@H]1CN(c2c(F)cc3c(=O)c(C(=O)O)cn([C@@H]4C[C@@H]4F)c3c2Cl)CC12CC2` [Sitafloxacin hydrate] was 0.991 ± 0.015; that for `Cc1cc2c(cc1S(N)(=O)=O)S(=O)(=O)CCC2` [Meticrane] was 0.9956 ± 0.0076.

As for `CC(=O)O[C@H]1C[C@@H]2CC[C@@H]3[C@H](CC[C@@]4(C)[C@H]3C[C@H]([N+]3(C)CCCCC3)[C@@H]4OC(C)=O)[C@@]2(C)C[C@@H]1N1CCCCC1` [Vecuronium Bromide], the fraction amounted to 0.9979 ± 0.0037. The same measure, in the same setting: as for `CC(C)[N+]1(C)[C@@H]2CC[C@H]1C[C@@H](OC(=O)C(CO)c1ccccc1)C2` (some centres not stated) [Ipratropium bromide], the figure is 0.9988 ± 0.0021. Still for that read-out and setting: as for `CN(C)CCC(c1ccc(Br)cc1)c1ccccn1` (configuration not stated) [Brompheniramine], the figure is 0.99 ± 0.017; as for `CC(C)NCC(O)c1ccc(O)c(O)c1` (configuration not stated) [Isoprenaline hydrochloride], 0.9952 ± 0.0083.

`OC[C@@H](O)[C@@H](O)[C@H](O)[C@H](O)CO` [D-Mannitol (Osmitrol)] showed a fraction of 0.991 ± 0.016. In turn, `CN(C)CCN(Cc1cccs1)c1ccccn1` [Methapyrilene HCl] came in with a fraction of 0.991 ± 0.015.

On to `COc1ccc([C@H]2CNC(=O)C2)cc1OC1CCCC1` [S-(+)-Rolipram], for which the fraction worked out at 0.997 ± 0.0052. The same measure, in the same setting: the value for `C#C[C@]1(O)CC[C@H]2[C@@H]3CCc4cc(O)ccc4[C@H]3CC[C@@]21C` [Ethinyl Estradiol] was 0.9983 ± 0.003; that for `CO[C@H]1C[C@@H]2CC[C@@H](C)[C@@](O)(O2)C(=O)C(=O)N2CCCC[C@H]2C(=O)O[C@H]([C@H](C)C[C@@H]2CC[C@@H](O)[C@H](OC)C2)CC(=O)[C@H](C)/C=C(\C)[C@@H](O)[C@@H](OC)C(=O)[C@H](C)C[C@H](C)/C=C/C=C/C=C/1C` [Rapamycin (Sirolimus)] was 0.9984 ± 0.0027; that for `COC(=O)[C@H](c1ccccc1Cl)N1CCc2sccc2C1` [Clopidogrel (Plavix)] was 0.9984 ± 0.0027.

In turn, `C[C@H]1C[C@H]2[C@@H]3CCC4=CC(=O)C=C[C@]4(C)[C@@]3(F)[C@@H](O)C[C@]2(C)[C@@]1(O)C(=O)CO` [Betamethasone (Celestone)] yielded a fraction of 0.9988 ± 0.0021.

The compound `CN(C)c1ccc(C(=C2C=CC(=[N+](C)C)C=C2)c2ccc(N(C)C)cc2)cc1` [Crystal violet] showed a fraction of 0.975 ± 0.043.

`CN1CCC(=C2c3ccccc3CC(=O)c3sccc32)CC1` [Ketotifen fumarate (Zaditor)]: the fraction was 0.987 ± 0.022. For `Nc1nc(N)c2nc(-c3ccccc3)c(N)nc2n1` [triamterene], the fraction came to 0.986 ± 0.025.

The compound `CCOC(=O)C1=C(C)NC(C)=C(C(=O)OCC)C1c1ccccc1/C=C/C(=O)OC(C)(C)C` [Lacidipine (Lacipil, Motens)] came in with a fraction of 0.992 ± 0.014. `C[C@](N)(Cc1ccc(O)c(O)c1)C(=O)O` [Methyldopa (Aldomet)] registered a fraction of 0.9991 ± 0.0015. On the same count and under the same terms, the value for `CN(C)CCC(c1ccccc1)c1ccccn1` (configuration not stated) [Pheniramine Maleate] was 0.988 ± 0.021. On the same count and under the same terms, as for `CC#CCn1c(N2CCC[C@@H](N)C2)nc2c1c(=O)n(Cc1nc(C)c3ccccc3n1)c(=O)n2C` [Linagliptin (BI-1356)], the figure is 0.983 ± 0.029.

The compound `NS(=O)(=O)c1cc2c(cc1Cl)N=CNS2(=O)=O` [Chlorothiazide] gave a fraction of 0.9984 ± 0.0027. The same measure, in the same setting: the value for `NCC(=O)CCC(=O)O` [5-Aminolevulinic acid hydrochloride] was 0.991 ± 0.015.

In the case of `CN(C)CCCN1c2ccccc2CCc2ccc(Cl)cc21` [Clomipramine hydrochloride (Anafranil)], the fraction is 0.992 ± 0.014.
